We go through one substance from PMC10461479.

By UniProt entry, the sequences of proteins in these tests, tags left out.
UniProt Q9NYV6: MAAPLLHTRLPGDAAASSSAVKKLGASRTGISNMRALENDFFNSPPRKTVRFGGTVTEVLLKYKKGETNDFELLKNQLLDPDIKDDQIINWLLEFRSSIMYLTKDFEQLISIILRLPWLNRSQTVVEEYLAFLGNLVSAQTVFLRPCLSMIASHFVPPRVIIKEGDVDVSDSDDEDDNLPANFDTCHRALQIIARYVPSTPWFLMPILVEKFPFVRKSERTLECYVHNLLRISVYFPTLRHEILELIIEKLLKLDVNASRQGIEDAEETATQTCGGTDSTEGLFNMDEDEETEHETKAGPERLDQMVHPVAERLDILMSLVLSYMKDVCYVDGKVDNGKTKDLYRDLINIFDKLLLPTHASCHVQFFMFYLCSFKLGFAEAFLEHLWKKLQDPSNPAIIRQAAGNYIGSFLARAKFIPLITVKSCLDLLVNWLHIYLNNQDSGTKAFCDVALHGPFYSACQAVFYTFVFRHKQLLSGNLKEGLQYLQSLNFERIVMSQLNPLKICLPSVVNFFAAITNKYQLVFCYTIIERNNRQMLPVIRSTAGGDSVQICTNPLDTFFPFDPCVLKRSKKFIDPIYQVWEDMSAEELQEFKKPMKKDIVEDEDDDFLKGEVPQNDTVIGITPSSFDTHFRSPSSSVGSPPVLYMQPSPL

These are yes or no findings as the source states them, for the method shown. Binding seen in cells or lysates may run through a third protein. Some binding calls cover weakened binding; strength is not graded here.

The target in the assay is T1, TAF1A (TAFI48) (human (endogenous in HepG2)) (UniProt Q15573).
T1 sequence: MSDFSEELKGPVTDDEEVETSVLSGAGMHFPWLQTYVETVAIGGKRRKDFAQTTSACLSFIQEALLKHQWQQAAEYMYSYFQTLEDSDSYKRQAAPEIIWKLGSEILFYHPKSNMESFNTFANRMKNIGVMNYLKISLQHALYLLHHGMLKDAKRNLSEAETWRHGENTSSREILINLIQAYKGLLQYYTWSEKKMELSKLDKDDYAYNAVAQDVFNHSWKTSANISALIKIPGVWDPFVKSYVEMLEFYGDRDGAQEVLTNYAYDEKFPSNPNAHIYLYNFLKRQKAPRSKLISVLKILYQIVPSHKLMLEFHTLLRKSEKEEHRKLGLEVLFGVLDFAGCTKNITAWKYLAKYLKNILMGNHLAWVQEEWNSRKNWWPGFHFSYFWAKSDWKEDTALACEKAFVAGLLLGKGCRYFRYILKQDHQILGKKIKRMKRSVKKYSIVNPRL
Put plainly: co-IP; endogenous TAF1A immunoprecipitated with anti-TAF1A antibody (Pierce Classic Magnetic IP/Co-IP Kit) from lysates of HepG2 cells transduced with scramble or TAF1B shRNA#6, 3 days after transduction; Western blot for RRN3 and UBF. (In general: Immunoblotting shows a protein as a band on a membrane.)

For RRN3 (from UniProt Q9NYV6 1-651), the binding result is “binds”.
